The campaign covered roughly 120,000 compounds. About 840 (0.7%) were called active. Inconclusive means that the source gave no clear call. Such entries were picked first, then a sample of the others.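 The calls were made as follows: active = inhibition above the batch mean plus 3 SD, and confirmed as a hit on visual image review (cut at about 43% in these data); inconclusive = passes the inhibition cutoff but fails visual image review; inactive = the rest.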
test: E-selectin induction blockers in HUVEC – imaging, immunofluorescence, high content, primary screen (AID 1246); conditions: HUVEC TNFa-induced E-selectin immunofluorescence, at 2 µM, active compounds read high;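 also: 0% = TNF-stimulated DMSO wells and 100% = unstimulated control wells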

inhibition, active:
CNC(=S)N=Nc1c(O)[nH]c2ccc(C(C)C)cc12 67.6%
COc1ccc(-n2nnnc2SCc2nc(N)nc(N3CCOCC3)n2)cc1 61.2%

inhibition, inconclusive:
CC1(C)NC(=O)N(CC(O)COc2cc3ccccc3cc2C(=O)N2CCCCC2)C1=O (stereo not drawn) 28.7%
COc1ccc(C)cc1S(=O)(=O)N(C)CC(=O)N1CCCCC1 56.8%
COc1ccc(NC(=O)c2cccnc2Cl)c(S(=O)(=O)N2CCOCC2)c1 41.4%
N#CCc1c(C#N)c(N)nc(N2CCN(c3ccc(F)cc3)CC2)c1C#N 40.4%
CCOc1ccc(NS(=O)(=O)c2ccc3c(c2)CCN3C(=O)CCC(=O)O)cc1 56%
COc1ccc2c(c1)c1ncn(CCCN3CCOCC3)c(=O)c1n2C 44%
N/C(=N\S(=O)(=O)c1cccs1)c1ccccc1 41.2%
O=S(=O)(c1cccc(-c2nnc(-c3ccc(Br)cc3)o2)c1)N1CCCCCC1 66.6%
Cc1ccc(-n2c(SCC(=O)Nc3ccc4c(c3)OCCO4)nnc2-c2ccco2)cc1 40.2%

Retrieved by compound from the entries so far, two records:
inhibition, inconclusive:
COc1ccc(NC(=O)c2cccnc2Cl)c(S(=O)(=O)N2CCOCC2)c1 41.4%
COc1ccc2c(c1)c1ncn(CCCN3CCOCC3)c(=O)c1n2C 44%

Next part.

inhibition, inactive:
O=C(CCCCCNc1nc(=S)[nH]c2ccccc12)NCCC1=CCCCC1 12.3%
COc1ccc(N/N=C(\C=N\O)C(=O)c2ccc(OC)cc2)cc1 -24.4%
CCN(CC)c1c(-c2ccccc2)c2cc(C)ccc2[nH]c1=O -11.4%
Cc1ccc(-c2cn3c(n2)SCC3)cc1 15.3%
O=C(O)CCC(=O)N1CC=C(c2ccccc2)CC1 -28.9%
COC(=O)c1ccccc1NC1=C/C(=N\S(=O)(=O)c2cccs2)c2ccccc2C1=O 22%
CCCOc1ccc(-c2nnn(CC(=O)c3ccc4c(c3)OCCO4)n2)cc1 20.6%
